The target in the experiment is GFP-tagged FEN1 (UniProt P39748). As to the kind of experiment: affinity purification with mass spectrometry; GFP or GFP-tagged FEN1 immunoprecipitated with anti-GFP antibody from nuclear extracts of UV-exposed HeLa cells; LC-MS/MS.

Protein sequences, listed by entry. Tags and fused reporters are not part of them.
UniProt P39748: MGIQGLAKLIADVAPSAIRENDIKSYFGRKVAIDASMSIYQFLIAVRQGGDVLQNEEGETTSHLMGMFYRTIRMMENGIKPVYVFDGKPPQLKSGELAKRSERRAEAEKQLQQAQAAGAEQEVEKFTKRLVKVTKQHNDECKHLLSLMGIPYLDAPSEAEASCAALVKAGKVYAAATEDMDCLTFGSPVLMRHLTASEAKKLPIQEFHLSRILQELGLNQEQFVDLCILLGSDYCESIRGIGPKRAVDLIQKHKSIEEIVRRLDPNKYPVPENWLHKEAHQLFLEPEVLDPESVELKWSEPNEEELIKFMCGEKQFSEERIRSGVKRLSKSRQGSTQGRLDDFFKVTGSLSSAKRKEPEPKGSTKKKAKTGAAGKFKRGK
UniProt Q7LBC6: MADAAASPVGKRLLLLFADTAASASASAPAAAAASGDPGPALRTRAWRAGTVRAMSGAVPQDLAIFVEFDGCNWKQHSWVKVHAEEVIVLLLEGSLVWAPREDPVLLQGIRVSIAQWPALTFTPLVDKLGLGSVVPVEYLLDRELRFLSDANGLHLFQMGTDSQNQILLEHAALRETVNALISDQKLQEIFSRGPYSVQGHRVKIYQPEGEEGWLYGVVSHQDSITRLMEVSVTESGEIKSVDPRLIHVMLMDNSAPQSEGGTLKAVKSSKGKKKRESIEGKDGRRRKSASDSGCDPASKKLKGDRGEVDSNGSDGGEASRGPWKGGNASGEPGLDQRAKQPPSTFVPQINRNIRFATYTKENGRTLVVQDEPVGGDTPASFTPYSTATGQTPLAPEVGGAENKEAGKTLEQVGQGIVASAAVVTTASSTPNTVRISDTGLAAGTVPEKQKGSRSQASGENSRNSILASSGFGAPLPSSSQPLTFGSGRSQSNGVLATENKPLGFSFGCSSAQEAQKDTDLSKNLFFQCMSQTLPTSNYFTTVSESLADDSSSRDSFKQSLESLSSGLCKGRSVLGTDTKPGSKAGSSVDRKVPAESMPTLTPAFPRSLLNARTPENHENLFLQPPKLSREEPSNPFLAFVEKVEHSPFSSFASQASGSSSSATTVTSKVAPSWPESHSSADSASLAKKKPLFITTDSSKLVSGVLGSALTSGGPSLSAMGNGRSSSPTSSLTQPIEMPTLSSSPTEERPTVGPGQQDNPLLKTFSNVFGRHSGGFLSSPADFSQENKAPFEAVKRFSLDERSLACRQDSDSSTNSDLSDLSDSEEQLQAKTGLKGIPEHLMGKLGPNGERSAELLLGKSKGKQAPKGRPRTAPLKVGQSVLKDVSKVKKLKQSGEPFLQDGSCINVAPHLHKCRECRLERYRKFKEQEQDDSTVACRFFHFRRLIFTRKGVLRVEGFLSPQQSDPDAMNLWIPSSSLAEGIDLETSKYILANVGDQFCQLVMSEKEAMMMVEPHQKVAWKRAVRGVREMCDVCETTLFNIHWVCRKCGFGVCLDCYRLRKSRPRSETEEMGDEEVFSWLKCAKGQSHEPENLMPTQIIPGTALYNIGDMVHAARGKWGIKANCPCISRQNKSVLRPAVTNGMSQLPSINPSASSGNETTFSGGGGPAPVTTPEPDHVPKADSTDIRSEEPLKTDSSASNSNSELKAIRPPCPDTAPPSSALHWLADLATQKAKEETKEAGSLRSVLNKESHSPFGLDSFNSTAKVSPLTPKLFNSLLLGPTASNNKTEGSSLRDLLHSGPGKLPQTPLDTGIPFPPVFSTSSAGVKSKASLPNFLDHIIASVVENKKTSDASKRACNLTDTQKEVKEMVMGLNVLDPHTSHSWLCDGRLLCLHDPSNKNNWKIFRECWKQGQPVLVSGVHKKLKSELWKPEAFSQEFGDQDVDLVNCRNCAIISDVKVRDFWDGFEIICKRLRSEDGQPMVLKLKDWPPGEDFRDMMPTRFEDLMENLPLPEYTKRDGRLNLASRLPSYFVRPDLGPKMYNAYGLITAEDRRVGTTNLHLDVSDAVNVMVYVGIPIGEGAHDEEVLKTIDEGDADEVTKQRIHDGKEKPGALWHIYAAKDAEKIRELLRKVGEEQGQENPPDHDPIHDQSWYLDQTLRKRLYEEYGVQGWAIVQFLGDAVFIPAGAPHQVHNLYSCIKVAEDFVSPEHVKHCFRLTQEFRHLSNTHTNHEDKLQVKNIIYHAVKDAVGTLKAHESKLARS

No constants are given. Whether binding was seen depends on the method and setting. Binding seen in cells or lysates may run through a third protein. These calls come from enrichment with a bait or labelling near it, and not all partners need be listed.

As for “JMJD1B (also known as KDM3B) (from UniProt Q7LBC6 1-1761) (enzyme)”, the binding result is “binds”.

Source of the values: article doi:10.1101/2025.10.06.680735, “JMJD1B-mediated FEN1 demethylation allows timely switching of Okazaki fragment maturation core enzymes to avoid mutagenic flap ligation by PARP1-LIG3” (bioRxiv, 2025).
